Values from PubChem BioAssay AID1259425 (University of Nebraska Medical Center, 2018)
This is an unselected part of about 14,000 reagents. Not stated in the record: the time to read-out.

Aim: 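Seek colon cancer weak points whose silencing resembles KSR1 loss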 (primary screen)
System: HCT116 human colon cancer cells
Reagents: siRNA pool against human genes, 50 nM siRNA
Measurement: 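mRNA of six signature genes measured together by branched-DNA assay after 50 nM siRNA pool, blank removed, divided by geometric mean of two housekeeping genes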
Reading the numbers: BNIP3L mRNA: higher = more BNIP3L transcript after knockdown; NDRG1 mRNA: higher = more NDRG1 transcript after knockdown; BNIP3 mRNA: higher = more BNIP3 transcript after knockdown; ALDOC mRNA: higher = more ALDOC transcript after knockdown; ACSL5 mRNA: higher = more ACSL5 transcript after knockdown

no.	Target gene	BNIP3L mRNA, set 1	NDRG1 mRNA, set 1	BNIP3 mRNA, set 1	ALDOC mRNA, set 1	ACSL5 mRNA, set 1
1	MSC	0.0556	0.171	0.208	0.00908	0.174
2	PPP1R3C	0.108	0.173	0.309	0.0486	0.19
3	RERG	0.0724	0.391	0.254	0.0313	0.38
4	DSG3	0.0867	0.0917	0.206	0.034	0.237
5	PYGM	0.0688	0.106	0.315	0.0174	0.101
6	TREML2	0.15	0.346	0.42	0.0344	0.298
7	RPS3A	0.137	0.314	0.416	0.0368	0.196
8	ABRAXAS2	0.257	0.24	0.492	0.0798	0.124
9	XRCC1	0.0673	0.0978	0.275	0.002	0.2
10	ITFG2	0.0816	0.13	0.373	0.0243	0.281
11	TMEM204	0.195	0.197	0.387	0.028	0.255
12	RGS2	0.206	0.211	0.435	0.0372	0.182
13	SIAE	0.156	0.235	0.317	0.0651	0.0658
14	HSPB1	0.0614	0.117	0.189	0.0172	0.134
15	CFAP69	0.124	0.109	0.312	0.0403	0.204
16	TPPP	0.182	0.196	0.457	0.0499	0.125
17	COL6A1	0.138	0.127	0.274	0.0334	0.134
18	STK36	0.091	0.102	0.361	0.00891	0.253
19	EDN1	0.113	0.258	0.163	0.01	0.227
20	PDF	0.112	0.228	0.34	0.0378	0.205
21	ITGA8	0.0558	0.168	0.275	0.0323	0.0769
22	ADD2	0.101	0.0435	0.287	0.0182	0.118
23	LAMP1	0.0236	0.506	0.263	0.0376	0.0874
24	TRPT1	0.0557	0.161	0.227	0.0644	0.177
25	PRRG3	0.182	0.432	0.333	0.0764	0.243
26	PPFIA4	0.0965	0.163	0.335	0.0214	0.113
27	SLC1A1	0.0997	0.228	0.272	0.0192	0.15
28	CD28	0.118	0.242	0.21	0.0676	0.183
29	PCLAF	0.0836	0.116	0.342	0.0197	0.101
30	RAB1B	0.0368	0.614	0.302	0.0167	0.232
31	SORCS1	0.0736	0.17	0.273	0.0237	0.172
32	CDSN	0.128	0.204	0.306	0.0119	0.221
33	HSDL2	0.198	0.395	0.361	0.0725	0.988
34	USP22	0.106	0.407	0.213	0.0202	0.281

An excerpt from above, showing only “BNIP3L mRNA, set 1”:
TMEM204 = 0.195
RGS2 = 0.206
SIAE = 0.156
